Results from US8802713B2, “3-alkoxy-1-phenylpyrazole derivatives and pesticides” (Kumiai Chemical Industry Co., Ltd., priority 2007, dated 2014).
Some of these results come from one statement about several compounds together. At least one structure is not confirmed: it was looked up by name or label, or the drawing left a doubt.

Columns and labels:
cotton aphid = assay: Insecticidal test on cotton aphid (seedling dip); type: in vivo; settings: 500 ppm active ingredient, cucumber seedlings with larvae of cotton aphid dipped, 25° C., 3 days
Experimental: A wettable powder prepared in accordance with Formulation Example 2 was diluted with water to a concentration of an active ingredient of 500 ppm. Cucumber seedlings which had been inoculated with larvae of cotton aphid were dipped in this solution and dried in air. The treated cucumber seedlings were placed in a thermostatic chamber at 25° C. for 3 days, and the live insects were counted for calculation of the mortality by Equation 2. The test was carried out by one series system.

brown rice planthopper = assay: Insecticidal test on brown rice planthopper; type: in vivo; settings: 500 ppm active ingredient, rice sprouts dipped, third-instar larvae, 25° C., 6 days
Procedure, shortened: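 Rice sprouts dipped in 500 ppm active ingredient (water-diluted wettable powder), then exposed to ten third-instar brown rice planthopper larvae. Held at 25° C. for 6 days; dead larvae counted for mortality, single series.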

Row | Compound | mortality (cotton aphid) [%] | mortality (brown rice planthopper) [%]
1 | CCC(CC)Oc1cc(C)n(-c2cc(SCC(F)(F)F)c(C)cc2F)n1 [1-237] | ≥ 90 | ≥ 90
2 | CC(=O)Nc1cc(OCC(F)(F)C(F)F)nn1-c1cc(SCC(F)(F)F)c(C)cc1F [1-247] | ≥ 90 | ≥ 90
3 | CC(=O)Nc1cc(OCC(F)(F)C(F)F)nn1-c1cc([S+]([O-])CC(F)(F)F)c(C)cc1F (stereo not drawn) [1-248] | ≥ 90 | ≥ 90
4 | Cc1cc(F)c(-n2ccc(OCC(F)C(F)(F)F)n2)cc1[S+]([O-])CC(F)(F)F (stereo not drawn) [1-252] | ≥ 90 | ≥ 90
5 | Cc1cc(F)c(-n2nc(OC(F)(F)C(F)(F)C(F)(F)F)cc2C)cc1SCC(F)(F)F [1-269] | ≥ 90 | ≥ 90
6 | Cc1cc(F)c(-n2nc(OC(C)C(F)(F)F)cc2C)cc1SCC(F)(F)F (stereo not drawn) [1-273] | ≥ 90 | ≥ 90
7 | Cc1cc(F)c(-n2nc(OC(C)C(F)(F)F)cc2C)cc1[S+]([O-])CC(F)(F)F (stereo not drawn) [1-274] | ≥ 90 | ≥ 90
8 | CC(=O)Nc1cc(OC(C)C(F)(F)F)nn1-c1cc(SCC(F)(F)F)c(C)cc1F (stereo not drawn) [1-275] | ≥ 90 | ≥ 90
9 | CC(=O)Nc1cc(OC(C)C(F)(F)F)nn1-c1cc([S+]([O-])CC(F)(F)F)c(C)cc1F (stereo not drawn) [1-276] | ≥ 90 | ≥ 90
10 | Cc1cc(F)c(-n2nc(OC(C)C(F)(F)C(F)(F)F)cc2C)cc1SCC(F)(F)F (stereo not drawn) [1-277] | ≥ 90 | ≥ 90
11 | Cc1cc(F)c(-n2nc(OC(C)C(F)(F)C(F)(F)F)cc2C)cc1[S+]([O-])CC(F)(F)F (stereo not drawn) [1-278] | ≥ 90 | ≥ 90
12 | Cc1cc(F)c(-n2nc(OC(C)C(F)(F)C(F)(F)C(F)(F)F)cc2C)cc1SCC(F)(F)F (stereo not drawn) [1-281] | ≥ 90 | ≥ 90
13 | Cc1cc(F)c(-n2nc(OC(C)C(F)(F)C(F)(F)C(F)(F)F)cc2C)cc1[S+]([O-])CC(F)(F)F (stereo not drawn) [1-282] | ≥ 90 | ≥ 90
14 | CNc1cc(OC(F)(F)C(F)OC(F)(F)F)nn1-c1cc(SCC(F)(F)F)c(C)cc1F (stereo not drawn) [1-287] | ≥ 90 | ≥ 90
15 | CNc1cc(OC(F)(F)C(F)OC(F)(F)F)nn1-c1cc([S+]([O-])CC(F)(F)F)c(C)cc1F (stereo not drawn) [1-288] | ≥ 90 | ≥ 90
16 | Cc1cc(F)c(-n2nc(OCCCC(F)(C(F)(F)F)C(F)(F)F)cc2C)cc1SCC(F)(F)F [1-301] | ≥ 90 | ≥ 90
17 | Cc1cc(F)c(-n2nc(OCCC(F)(F)C(F)(F)C(F)(F)C(F)(F)F)cc2C)cc1[S+]([O-])CC(F)(F)F (stereo not drawn) [1-312] | ≥ 90 | ≥ 90
18 | Cc1cc(F)c(-n2nc(OC(F)(F)C(F)OC(F)(F)C(F)(F)F)cc2C)cc1SCC(F)(F)F (stereo not drawn) [1-317] | ≥ 90 | ≥ 90
19 | Cc1cc(F)c(-n2nc(OC(F)(F)C(F)OC(F)(F)C(F)(F)F)cc2C)cc1[S+]([O-])CC(F)(F)F (stereo not drawn) [1-318] | ≥ 90 | ≥ 90

Row | Compound | mortality (cotton aphid) [%] | mortality (brown rice planthopper) [%]
20 | Cc1cc(F)c(-n2nc(OCC(F)(F)C(F)(F)C(F)(F)C(F)F)cc2C)cc1SCC(F)(F)F [1-321] | ≥ 90 | ≥ 90
21 | Cc1cc(F)c(-n2nc(OCC(F)(F)C(F)(F)C(F)(F)C(F)F)cc2C)cc1[S+]([O-])CC(F)(F)F (stereo not drawn) [1-322] | ≥ 90 | ≥ 90
22 | Cc1cc(F)c(-n2nc(OCC(F)(F)OC(F)(F)C(F)(F)OC(F)(F)F)cc2C)cc1SCC(F)(F)F [1-323] | ≥ 90 | ≥ 90
23 | Cc1cc(F)c(-n2nc(OCC(F)(F)OC(F)(F)C(F)(F)OC(F)(F)F)cc2C)cc1[S+]([O-])CC(F)(F)F (stereo not drawn) [1-324] | ≥ 90 | ≥ 90
24 | Cc1cc(F)c(-n2nc(OC(F)(F)C(F)OC(F)(F)C(F)(F)C(F)(F)F)cc2C)cc1SCC(F)(F)F (stereo not drawn) [1-325] | ≥ 90 | ≥ 90
25 | Cc1cc(F)c(-n2nc(OC(F)(F)C(F)OC(F)(F)C(F)(F)C(F)(F)F)cc2C)cc1[S+]([O-])CC(F)(F)F (stereo not drawn) [1-326] | ≥ 90 | ≥ 90
26 | CON=Cc1cc(OCC(F)(F)C(F)(F)C(F)(F)C(F)(F)F)nn1-c1cc([S+]([O-])CC(F)(F)F)c(C)cc1F (stereo not drawn) [1-332] | ≥ 90 | ≥ 90
27 | CNc1cc(OC(F)(F)C(F)OC(F)(F)C(F)(F)F)nn1-c1cc(SCC(F)(F)F)c(C)cc1F (stereo not drawn) [1-345] | ≥ 90 | ≥ 90
28 | CNc1cc(OC(F)(F)C(F)OC(F)(F)C(F)(F)F)nn1-c1cc([S+]([O-])CC(F)(F)F)c(C)cc1F (stereo not drawn) [1-346] | ≥ 90 | ≥ 90
29 | C#CCNc1cc(OC(F)(F)C(F)OC(F)(F)C(F)(F)F)nn1-c1cc(SCC(F)(F)F)c(C)cc1F (stereo not drawn) [1-353] | ≥ 90 | ≥ 90
30 | COc1cc(OCC(F)(F)C(F)(F)C(F)(F)C(F)(F)F)nn1-c1cc(SCC(F)(F)F)c(C)cc1F [1-364] | ≥ 90 | ≥ 90
31 | Cc1cc(F)c(-n2ccc(OC(F)(C(F)(F)F)C(F)(F)F)n2)cc1SCC(F)(F)F [1-392] | ≥ 90 | ≥ 90
32 | Cc1cc(F)c(-n2ccc(OC(F)(C(F)(F)F)C(F)(F)F)n2)cc1[S+]([O-])CC(F)(F)F (stereo not drawn) [1-393] | ≥ 90 | ≥ 90
33 | Cc1cc(F)c(-n2ccc(OC(F)(F)C(F)(F)C(F)(F)F)n2)cc1[S+]([O-])CC(F)(F)F (stereo not drawn) [1-395] | ≥ 90 | ≥ 90
34 | Cc1cc(F)c(-n2ccc(OC(F)(F)C(F)(F)C(F)(F)C(F)(F)F)n2)cc1[S+]([O-])CC(F)(F)F (stereo not drawn) [1-397] | ≥ 90 | ≥ 90
35 | Cc1cc(F)c(-n2ccc(OC(F)(F)C(F)(F)C(F)(F)C(F)(F)C(F)(F)C(F)(F)F)n2)cc1[S+]([O-])CC(F)(F)F (stereo not drawn) [1-401] | ≥ 90 | ≥ 90
36 | Cc1cc(F)c(-n2ccc(OC(F)(F)C(F)OC(F)(F)F)n2)cc1SCC(F)(F)F (stereo not drawn) [1-410] | ≥ 90 | ≥ 90
37 | Cc1cc(F)c(-n2ccc(OC(F)(F)C(F)OC(F)(F)C(F)(F)C(F)(F)F)n2)cc1SCC(F)(F)F (stereo not drawn) [1-414] | ≥ 90 | ≥ 90
38 | Cc1cc(F)c(-n2nc(OC(F)(F)C(F)OC(F)(F)C(F)(F)F)cc2N)cc1SCC(F)(F)F (stereo not drawn) [1-458] | ≥ 90 | ≥ 90

Row | Compound | mortality (cotton aphid) [%] | mortality (brown rice planthopper) [%]
39 | Cc1cc(F)c(-n2nc(OC(F)(F)C(F)OC(F)(F)C(F)(F)C(F)(F)F)cc2N)cc1SCC(F)(F)F (stereo not drawn) [1-460] | ≥ 90 | ≥ 90
40 | CNc1cc(OCC(F)(F)C(F)(F)C(F)(F)C(F)F)nn1-c1cc(SCC(F)(F)F)c(C)cc1F [1-550] | ≥ 90 | ≥ 90
41 | C#CCNc1cc(OC(F)(F)C(F)OC(F)(F)F)nn1-c1cc(SCC(F)(F)F)c(C)cc1F (stereo not drawn) [1-578] | ≥ 90 | ≥ 90
42 | C#CCNc1cc(OC(F)(F)C(F)OC(F)(F)F)nn1-c1cc([S+]([O-])CC(F)(F)F)c(C)cc1F (stereo not drawn) [1-579] | ≥ 90 | ≥ 90
43 | Cc1cc(F)c(-n2nc(OC(F)(F)C(F)OC(F)(F)C(F)(F)F)cc2C#N)cc1SCC(F)(F)F (stereo not drawn) [1-670] | ≥ 90 | ≥ 90
44 | Cc1cc(F)c(-n2nc(OC(F)(C(F)(F)F)C(F)(F)F)cc2C)cc1SCC(F)(F)F [1-696] | ≥ 90 | ≥ 90
45 | Cc1cc(F)c(-n2nc(OC(F)(F)C(F)(F)C(F)(F)F)cc2Cl)cc1[S+]([O-])CC(F)(F)F (stereo not drawn) [1-873] | ≥ 90 | ≥ 90
46 | Cc1cc(F)c(-n2cc(Cl)c(OC(F)(F)C(F)OC(F)(F)C(F)(F)C(F)(F)F)n2)cc1[S+]([O-])CC(F)(F)F (stereo not drawn) [1-1151] | ≥ 90 | ≥ 90
47 | Cc1cc(F)c(-n2cc(Br)c(OC(F)(F)C(F)OC(F)(F)C(F)(F)F)n2)cc1SCC(F)(F)F (stereo not drawn) [1-1194] | ≥ 90 | ≥ 90
48 | Cc1cc(F)c(-n2nc(OC(F)(F)C(F)OC(F)(F)C(F)(F)F)c(Br)c2N)cc1SCC(F)(F)F (stereo not drawn) [1-1282] | ≥ 90 | ≥ 90
49 | Cc1cc(F)c(-n2nc(OCC(F)(F)F)cc2N)cc1SCC(F)(F)F [1-1365] | ≥ 90 | ≥ 90
50 | Cc1cc(F)c(-n2nc(OCC(F)(F)F)cc2N)cc1[S+]([O-])CC(F)(F)F (stereo not drawn) [1-1366] | ≥ 90 | ≥ 90
51 | CC(=O)Nc1cc(OCC(F)(F)F)nn1-c1cc(SCC(F)(F)F)c(C)cc1F [1-1369] | ≥ 90 | ≥ 90
52 | CC(=O)Nc1cc(OCC(F)(F)F)nn1-c1cc([S+]([O-])CC(F)(F)F)c(C)cc1F (stereo not drawn) [1-1370] | ≥ 90 | ≥ 90
53 | CC(=O)Nc1cc(OCC(F)(F)Cl)nn1-c1cc(SCC(F)(F)F)c(C)cc1F [1-1371] | ≥ 90 | ≥ 90
54 | Cc1cc(F)c(-n2nc(OCC(F)(F)F)c(F)c2N)cc1[S+]([O-])CC(F)(F)F (stereo not drawn) [1-1382] | ≥ 90 | ≥ 90
55 | C#CCN(C(C)=O)c1cc(OC(F)(F)C(F)F)nn1-c1cc(SCC(F)(F)F)c(C)cc1F [1-1400] | ≥ 90 | ≥ 90
56 | CNc1cc(OC(F)(F)C(F)F)nn1-c1cc(SCC(F)(F)F)c(C)cc1F [1-1402] | ≥ 90 | ≥ 90
57 | CNc1cc(OC(F)(F)C(F)F)nn1-c1cc([S+]([O-])CC(F)(F)F)c(C)cc1F (stereo not drawn) [1-1403] | ≥ 90 | ≥ 90
